# The whole screen tested about 340,000 compounds, of which about 170 (0.05%) were called active. Inconclusive means that the source gave no clear call. Such entries were picked first, then a sample of the others. The call rests on the fitted dose curve; in most records, active means well fitted inhibition curve with a large enough effect in the signal ratio, with a control signal flat (not every such curve was filed as active); inconclusive means small, poorly fitted or top-dose-only effect, or effect the other way, or a change in a side signal; inactive means flat fitted curve, though single readings scatter; the % refers to the signal ratio. Where the call is inconclusive, the potency comes from a doubtful curve fit.
# Assay: qHTS Assay to Find Inhibitors of Chronic Active B-Cell Receptor Signaling;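 on activity change, negative = inhibition: plate controls were basal doxycycline-induced cells for no effect and cells given 10 µM MG132 for full effect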
# Settings: ABC-DLBCL IkBa-CBG/CBR reporter, luminescence ratio (green luciferase fused to IkBa over red control in TMD8 lymphoma cells), 4 h; activity change, negative = inhibition: at 46.1 µM (top of the series)
# In short: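 TMD8 human ABC-DLBCL cells with doxycycline-inducible IκBα–green luciferase fusion and unfused red luciferase, in 0.5% FBS medium; compounds up to 46 uM, 4 h at 37C. Green/red luminescence ratio, filter-overlap corrected, fitted to concentration-response curves.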
# Potency means the concentration at half of the fitted maximal effect.
SMILES,Potency,"activity change, negative = inhibition"
CN1CCN(C(=O)CCCN2C(=O)/C(=C/c3ccccc3)SC2=S)CC1,"inconclusive: 20 µM [falling, partial curve]",
Fc1ccc(-n2ncc3c(N4CCC(Cc5ccccc5)CC4)ncnc32)cc1,,inconclusive: -0.891%
CC(=O)c1ccc(N2C(=O)N(Cc3ccccc3C#N)c3ccccc3S2(=O)=O)cc1,"inconclusive: 35.5 µM [falling, partial curve, poor fit]",
CC1C(=O)Nc2ccc(S(=O)(=O)N3CCN(c4cccc(Cl)c4)CC3)cc2NC1=O (configuration not stated),,inconclusive: -24.7%
C=CCN1C(c2cccc(C(F)(F)F)c2)=CS/C1=C(/C#N)c1nnc(N2CCOCC2)n1-c1ccccc1,,inactive: 4.48%
CCOc1cccc2cc(-c3cn4cc(C)ccc4n3)c(=O)oc12,"inconclusive: 4.47 µM [falling, partial curve, poor fit]",
Cc1cc(S(=O)(=O)N2CCN(c3c(C)cccc3C)CC2)ccc1F,,inconclusive: 5.29%
O=c1oc2cc(O)ccc2c2oc3cc(O)ccc3c12,"inconclusive: 10.3 µM [activator, partial curve, poor fit]",
COc1cc(/C=C/C(=O)OCC(=O)N2c3ccccc3CC2C)cc(OC)c1OC (configuration not stated),,inactive: -6.19%
CCOc1ccccc1NC(=S)N1CCN(c2nc(-c3ccc(F)cc3)cs2)CC1,,inconclusive: -11.8%
c1ccc(-n2ncc3c(NCC4CCCO4)ncnc32)cc1 (configuration not stated),,inconclusive: -1.18%
CC1CC(NS(=O)(=O)c2cccs2)CC(C)(C)C1 (configuration not stated),,inactive: 6.66%
Cc1ccc(-c2nc(CN3CCCCC3)cc(CN3CCCCC3)c2O)cc1,,inconclusive: -20.5%
Cc1nn(CC(=O)N(C)Cc2ccccc2)c(=O)c2cccn12,,inactive: 1.71%
Cc1[nH]n(-c2ccccc2)c(=O)c1C=Nc1ccc2[nH]c(=O)[nH]c2c1,,inactive: -4.53%
CCN(CC(=O)Nc1c(F)cccc1F)C(=O)COc1ccc2c(c1)CCC2,"inconclusive: 2.31 µM [falling, partial curve]",
CNCCC(Oc1ccc(C(F)(F)F)cc1)c1ccccc1 (configuration not stated),"inconclusive: 32.6 µM [falling, partial curve, poor fit]",
COc1ccc(Cn2nc(-c3ccccc3)c(N3CCCCC3)cc2=O)cc1,,inconclusive: 3.14%
Cc1cccc(CS(=O)(=O)Cc2ccc(C(=O)NCc3cccnc3)o2)c1,,inconclusive: -0.98%
COc1cccc(CC2CC(=O)N(CCc3ccc4c(c3)OCO4)C2=O)c1 (configuration not stated),"inconclusive: 32.6 µM [falling, single point]",
COc1ccccc1N/N=C1\COC(C)(C)CC1=O,,inconclusive: 11.3%

# Quoted at random: 5 entries already listed
SMILES,Potency,"activity change, negative = inhibition"
c1ccc(-n2ncc3c(NCC4CCCO4)ncnc32)cc1 (configuration not stated),,inconclusive: -1.18%
Fc1ccc(-n2ncc3c(N4CCC(Cc5ccccc5)CC4)ncnc32)cc1,,inconclusive: -0.891%
CCOc1cccc2cc(-c3cn4cc(C)ccc4n3)c(=O)oc12,"inconclusive: 4.47 µM [falling, partial curve, poor fit]",
Cc1cc(S(=O)(=O)N2CCN(c3c(C)cccc3C)CC2)ccc1F,,inconclusive: 5.29%
C=CCN1C(c2cccc(C(F)(F)F)c2)=CS/C1=C(/C#N)c1nnc(N2CCOCC2)n1-c1ccccc1,,inactive: 4.48%

# More records

SMILES,Potency,"activity change, negative = inhibition"
C#CCOc1ccc(/C=C2/C(=O)N(c3cccc(C(=O)O)c3)N=C2C)cc1OC,,inactive: -2.8%
Cc1ccc(NC(=O)NCC2CC2(Cl)Cl)cc1 (configuration not stated),,inconclusive: 6.37%
COc1ccc(-n2nnnc2CNC(=O)C(=O)c2c(C)[nH]c3ccccc23)cc1,,inconclusive: -8.92%
Cc1nc(-c2ccc(S(=O)(=O)N3CCN(c4cccc(C)c4C)CC3)cc2)co1,"inconclusive: 11.2 µM [rising, partial curve, poor fit]",
COCc1c(C(=O)OCC(=O)c2c(N)n(CC(C)C)c(=O)n(C)c2=O)oc2ccccc12,,inconclusive: -0.656%
O=C1Nc2cc3c(cc2C1=O)sc1ccccc13,"inconclusive: 5.62 µM [rising, partial curve, poor fit]",
COc1ccccc1-c1nc(SCc2ccccn2)n[nH]1,,inconclusive: 219%
COc1ccc(C)cc1NC(=O)CSc1nnc(COc2ccccc2)n1Cc1ccco1,,inconclusive: -6.77%
Cc1ccc(O)c(CNc2cccc(C)n2)c1,,inconclusive: 0.2%
O=C(c1cccc(Br)c1)c1coc2ccc(O)cc12,,inconclusive: -1.85%
O=C(COC(=O)c1ccc(Cl)s1)c1ccc[nH]1,,inconclusive: 8.71%
COC(=O)c1ccc(NC(=S)NNC(=O)CC(C)C)cc1,"inconclusive: 8.2 µM [falling, partial curve]",
CCCC(=O)Nc1ccc(C(=O)n2ccc(C)n2)cc1,,inconclusive: 11.1%
CCOc1cc(N2CCOCC2)c(OCC)cc1NC(=O)CN1CCC(Cc2ccccc2)CC1,,inconclusive: 1.2%
O=C(Nc1cccc(Cl)c1)c1cnn2cccnc12,,inconclusive: -12.2%
Cc1oc(CC(C)C)cc1C(=O)Nc1cccc2ccccc12,,inconclusive: -13.8%
CC1CCC(C(C)C)C(OC(=O)Cn2c(-c3ccc(Br)cc3)[n+](C)c3ccccc32)C1 (configuration not stated),,inconclusive: 6.04%
Cc1oc2c(c(C)cc3oc(=O)c(CC(=O)NCC(=O)NCC(=O)O)c(C)c32)c1C,,inconclusive: 6.52%
CCN(CC)C(=O)CSc1nc2ccccc2n1CC(=O)N1CCN(c2ccccc2OC)CC1,,inconclusive: -2.27%
CCN(CC)S(=O)(=O)c1cc(C)ccc1SC,,inactive: -0.172%
O=C(Cn1nc2n(c1=O)-c1ccccc1SC2)N/N=C/c1ccncc1,,inconclusive: 16.8%

SMILES,Potency,"activity change, negative = inhibition"
O=S(=O)(Nc1nc2ccccc2nc1NCCO)c1cccc(Cl)c1,"inconclusive: 11.6 µM [falling, partial curve, poor fit]",
COc1cc(/C=C(\C#N)C(=O)N2CCCCC2)ccc1O,,inconclusive: 0.294%
O=C(OCCCc1cc2ccccc2c(=O)o1)c1ccccc1C(F)(F)F,,inconclusive: 5.89%
CC(C(=O)c1ccc(-c2ccccc2)cc1)[n+]1cccc(C(N)=O)c1 (configuration not stated),,inactive: 6.87%
CC1=NN(c2ccc(Cl)c(C(=O)O)c2)C(=O)C1,,inconclusive: -12.9%
CCOC(=O)c1sc(-c2ccccc2)cc1NC(=O)Nc1ccccc1,,inconclusive: 26%
CC1(C)NC(=O)N(CC(=O)OCc2cc(=O)n3cc(Br)ccc3n2)C1=O,,inactive: -0.794%
CC1Oc2ccccc2C=C1/C=C1/SC(N2CCOCC2)=NC1=O (configuration not stated),,inconclusive: -9.09%
Cc1ccc(/C=N/NC(=O)c2ccc(Cn3cc([N+](=O)[O-])cn3)o2)cc1,,inconclusive: -13.4%
CSc1ccc(CNc2ccccn2)cc1,,inactive: -1%
Cc1cc(C)nc(Nc2ncc(O)n2-c2ccc(C)c(C)c2)n1,,inactive: 0.389%
Cn1cccc1C(=O)NCC(c1ccc(F)cc1)N1CCOCC1 (configuration not stated),,inconclusive: 15.8%
CCCN(CC(=O)Nc1ccccc1C)C(=O)c1cccc(S(=O)(=O)N2CCc3ccccc3C2)c1,,inconclusive: 5.53%
c1ccc(-c2cnc(CSc3ncnc4sccc34)o2)cc1,"inconclusive: 5.8 µM [falling, single point]",
O=C(COC(=O)c1cccc(NC(=O)c2ccco2)c1)c1ccc(Br)cc1,"inconclusive: 12.6 µM [falling, partial curve]",
CNC(=O)NCCN1CCCC1=O,,inconclusive: 3.38%
COc1ccccc1C(=O)Nc1ccc(C)c(S(=O)(=O)N2CCCCC2)c1,,inconclusive: -25.1%
Cc1cccc(NC(=O)CN(C)C(=O)C2CC2)c1C,,inconclusive: 3.91%
COc1ccc(S(=O)(=O)N2CCc3cc(OC)c(OC)cc3C2)cc1,,inactive: -9.86%
CCC(=O)N1CCN(c2ccc(Cl)cc2NC(=O)c2ccc([N+](=O)[O-])o2)CC1,,inactive: 3.75%
FC(F)(F)c1nnc2ccc(-n3ccnc3)nn12,,inconclusive: -9.39%

SMILES,Potency,"activity change, negative = inhibition"
COc1cc(/C=c2\sc3n(c2=O)CCCN=3)ccc1O,,inactive: -5.94%
O=C(COc1ccc2ccccc2c1)Nc1ccncc1,,inconclusive: -0.983%
CCCOc1ccc(Cc2c(O)nc(SC)[nH]c2=O)cc1C,,inconclusive: -0.844%
COc1cc(NC(=O)Nc2cccc3cccnc23)cc(OC)c1OC,"inconclusive: 35.5 µM [falling, partial curve, poor fit]",
CC(C)(C)NCC(O)COc1ccccc1C(C)(C)C (configuration not stated),,inconclusive: -0.484%
C[C@@]12C(=O)N(c3cccc(Br)c3)C(=O)N1[C@H](c1ccc(Cl)cc1)[C@@H]1C(=O)N(C3CCCCC3)C(=O)[C@@H]12,,inconclusive: 25.7%
O=[N+]([O-])c1cnc(Nc2ccccc2)nc1Nc1ccccc1,,inactive: 10.8%
CCC(=O)NC(c1ccccc1Cl)c1c(O)ccc2ccccc12 (configuration not stated),"inconclusive: 23.1 µM [falling, single point]",
CCOC(=O)c1ccc(-c2ccc3oc(-c4ccsc4)cc(=O)c3c2)cc1F,"inconclusive: 5.8 µM [falling, partial curve, poor fit]",
C=CCn1c(SCC(=O)Nc2cccc(S(N)(=O)=O)c2)nc2sc(C)c(C)c2c1=O,"inconclusive: 4.61 µM [falling, full curve]",
COc1ccc(C(=O)NCCc2cn3ccccc3n2)cc1,,inconclusive: 4.41%
O=C(OCc1c(-c2ccccc2)ncc2ccccc12)c1cccc(Br)c1,"inconclusive: 8.2 µM [falling, partial curve]",
Cc1cccc(C(=O)Nc2cccc(C(=O)N/N=C/c3ccccn3)c2)c1,,inconclusive: -0.242%
CC(=O)OC(COc1cccc(C)c1)Cn1cnc2ccccc21 (configuration not stated),,inconclusive: 5.02%
N#C/C(=C\c1cn(Cc2ccccc2F)c2ccccc12)C(=O)NCc1ccco1,,inconclusive: -8.51%
CC1(C)CC(=O)C=C(NCCN2CCN(C(=O)Nc3ccc(Cl)cc3)CC2)C1,,inconclusive: 7.45%
CC(C)(C)c1cnnn1-c1ccc(/C=N/Nc2ccc([N+](=O)[O-])cc2)cc1,,inactive: 7.34%
O=C(Nc1ccc2nn(-c3ccccc3)nc2c1)c1cccs1,,inactive: 8.4%
O=[N+]([O-])c1ccc(OCc2n[nH]c(=S)n2-c2ccccc2)cc1,,inactive: 0.711%
